PubChem BioAssay AID1259308 | NCATS – 2017
The deposit covers about 59,000 reagents; shown is a part drawn at random. Of all reagents, about 1,510 (2.6%) are marked active. 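Calls use total luciferase alone and ignore viability, so some active siRNAs may act by altering cell number.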 A number with no mark means an inactive call. Reagents against one gene are numbered here. Not all columns of the deposit are shown. Reagent sequences are not shown.

Aim: 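Genes whose loss raises luciferase production in HEK293 cells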 (primary screen)
Cells: human HEK293 embryonic kidney cells stably expressing firefly luciferase (HEK-CMV-Luc2-Hygro)
Knock-down reagent: single siRNA against human genes, 0.8 pmol siRNA per well
Duration: 72 h
Measured: 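Reporter luminescence and viable-cell signal on separate replicate plates, given as percent of non-targeting control and median/MAD z-scores, plus per-cell luciferase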
Direction: total luciferase, z-score and total luciferase, % of control: higher = more reporter protein produced; luciferase per cell, z-score: higher = more reporter output per viable cell
Hit rule: 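Active when the median/MAD z-score for overall luciferase is greater than 3; a gene was taken forward for validation with new siRNAs if at least two of its three siRNAs passed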
Meaning of the calls: active = raised luciferase; inactive = no rise

| gene symbol | reagent | total luciferase, z-score | total luciferase, % of control | luciferase per cell, z-score |
| --- | --- | --- | --- | --- |
| OR1L8 | 1 | -0.13 | 79.3 | -0.378 |
| OR1L8 | 2 | 1.06 | 103 | 0.895 |
| OR1L8 | 3 | 0.223 | 86.3 | -0.383 |
| BTBD17 | 1 | 0.958 | 101 | 1.29 |
| BTBD17 | 2 | -0.477 | 72.4 | -0.977 |
| BTBD17 | 3 | 0.186 | 85.6 | 0.0375 |
| THAP5 | 1 | 0.53 | 92.4 | -0.216 |
| THAP5 | 2 | 0.185 | 85.6 | 0.148 |
| THAP5 | 3 | -1.45 | 53.1 | 0.146 |

As entered above.
For “total luciferase, % of control”, THAP5 #3 reads 53.1
For “total luciferase, % of control”, THAP5 #1 has 92.4
Entry of BTBD17 #1 under “luciferase per cell, z-score”: 1.29

Additional results:
| gene symbol | reagent | total luciferase, z-score | total luciferase, % of control | luciferase per cell, z-score |
| --- | --- | --- | --- | --- |
| ACOX2 | 1 | 1.28 | 107 | 0.468 |
| ACOX2 | 2 | -1.76 | 46.9 | -0.959 |
| ACOX2 | 3 | 2.06 | 123 | 0.944 |
| GABPB1 | 1 | 0.421 | 90.3 | 0.46 |
| GABPB1 | 2 | -0.0933 | 80 | 0.116 |
| GABPB1 | 3 | 0.358 | 89 | 2.17 |
| OR2D3 | 1 | 0.0183 | 82.3 | 0.0732 |
| OR2D3 | 2 | 0.77 | 97.2 | 1 |
| OR2D3 | 3 | 1.82 | 118 | 1.52 |
| BMPR1A | 1 | 1.4 | 110 | 1.62 |
| BMPR1A | 2 | 0.775 | 97.3 | 2.46 |
| BMPR1A | 3 | -0.223 | 77.5 | -0.431 |
| GRIN3A | 1 | -0.08 | 80.3 | 0.0255 |
| GRIN3A | 2 | 0.131 | 84.5 | -0.0575 |
| GRIN3A | 3 | 0.877 | 99.3 | 0.651 |
